# In paper PMC5762300:
# Sequences of proteins named here, by UniProt entry; tags and fusion partners are left off. A change or cut given only in a name is not applied to a line headed by its entry.
# UniProt Q13905: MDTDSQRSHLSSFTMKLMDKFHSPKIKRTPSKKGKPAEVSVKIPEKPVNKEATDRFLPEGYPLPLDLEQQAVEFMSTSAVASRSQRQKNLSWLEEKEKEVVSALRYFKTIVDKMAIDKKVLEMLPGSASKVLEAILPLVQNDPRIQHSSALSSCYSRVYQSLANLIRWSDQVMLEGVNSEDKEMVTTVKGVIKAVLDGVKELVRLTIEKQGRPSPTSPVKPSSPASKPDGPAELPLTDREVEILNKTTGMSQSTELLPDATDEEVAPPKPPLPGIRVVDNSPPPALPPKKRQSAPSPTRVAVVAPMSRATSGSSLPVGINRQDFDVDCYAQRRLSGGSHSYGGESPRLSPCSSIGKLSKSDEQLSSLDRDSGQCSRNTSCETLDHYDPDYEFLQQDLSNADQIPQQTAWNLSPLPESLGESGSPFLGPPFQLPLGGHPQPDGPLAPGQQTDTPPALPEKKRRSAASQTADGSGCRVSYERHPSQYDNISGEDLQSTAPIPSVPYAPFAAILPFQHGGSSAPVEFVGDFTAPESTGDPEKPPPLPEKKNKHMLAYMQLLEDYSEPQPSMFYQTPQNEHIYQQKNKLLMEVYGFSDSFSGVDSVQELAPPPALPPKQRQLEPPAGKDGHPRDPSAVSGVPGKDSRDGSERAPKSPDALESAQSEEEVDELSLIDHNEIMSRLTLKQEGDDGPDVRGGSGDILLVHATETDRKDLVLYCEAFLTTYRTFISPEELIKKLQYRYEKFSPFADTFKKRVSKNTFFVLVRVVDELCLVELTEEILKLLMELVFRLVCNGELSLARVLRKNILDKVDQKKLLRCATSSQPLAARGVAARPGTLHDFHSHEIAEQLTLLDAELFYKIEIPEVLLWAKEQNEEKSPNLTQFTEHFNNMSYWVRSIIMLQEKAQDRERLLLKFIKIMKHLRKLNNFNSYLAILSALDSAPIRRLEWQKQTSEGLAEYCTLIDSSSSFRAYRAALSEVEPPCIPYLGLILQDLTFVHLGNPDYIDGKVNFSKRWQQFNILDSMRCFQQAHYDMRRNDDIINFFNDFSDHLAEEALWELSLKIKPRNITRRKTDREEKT
# UniProt P51809: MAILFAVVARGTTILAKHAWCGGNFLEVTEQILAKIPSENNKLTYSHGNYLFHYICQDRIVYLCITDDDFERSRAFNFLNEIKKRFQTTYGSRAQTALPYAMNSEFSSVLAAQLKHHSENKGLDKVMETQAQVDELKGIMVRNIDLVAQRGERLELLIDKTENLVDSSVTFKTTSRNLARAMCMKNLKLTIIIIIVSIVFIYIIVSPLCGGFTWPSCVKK
# Target: C3G∆Cat (pLTR2C3G∆Cat construct) (human) (UniProt Q13905)
# Assay: co-IP; HEK293T cells co-transfected with pLTR2C3G∆Cat and CFP-VAMP-7 fusion proteins; immunoprecipitated with anti-C3G antibodies; VAMP-7 detected with anti-GFP
row,binding,Substance
1,binds,"CFP-VAMP7-CT, C-terminal (SNARE) domain of VAMP-7 (aminoacids 121-188) (from UniProt P51809 121-188) (domain or fragment)"
2,binds,"CFP-VAMP7-NT, N-terminal (longin) domain of VAMP-7 (aminoacids 1-120) (from UniProt P51809 1-120) (domain or fragment)"
3,binds,"CFP-VAMP7-cyto, VAMP-7 cytosolic domain (aminoacids 1-188) (from UniProt P51809 1-188) (domain or fragment)"

# Results are given in words; binding and its absence hold for the method and conditions named. In cells and extracts the contact can be indirect. Binding can be weak; no strength is given.
